Results: patent US5317014A, “Peptides and pseudopeptides derived from tachykinin” (priority 1991, dated 1994)
Part of at least one peptide drawing is inferred or uncertain, most often the ends.

Tests used:
NK1 receptor = format: cell-based; conditions: antagonistic power, rabbit vena cava
Method: In order to evaluate the neurokinin antagonistic potential of the compounds of the invention, three smooth muscle preparations were used. Each of these preparations, described as having a good specificity for one type of receptor for neurokinins, was carried out conforming to the following techniques described in the literature:
rabbit vena cava for the study of the NK1 receptor according to D. REGOLI et al. (J. Cardiovasc. Pharmacol., in press);
The antagonistic power of the compounds of the invention is expressed in the form of pA2 as defined by O. ARUNLAKSHANA and H. O. SCHILD (Brit. J. Pharmacol., 14, 48-58, 1959).

mouse = assay: Eddy test in the mouse (thermal hyperalgesia, hot plate 55° C.); format: in vivo; conditions: for Eddy test in the mouse ED50: dose increasing the reaction time by 50%, i.v. 5 minutes before heating plate, CD1 male mice
Method: This test consists in measuring the reaction time to heat determined by licking of the forepaws in a mouse (CD1 male, Ch. River, 25-30 g) placed on a metal plate heated to 55° C.
The animals were treated intravenously with the compounds of the invention 5 minutes before passing onto the heating plate.
The mean of the reaction times obtained for each batch treated (12 mice per batch) was compared with the mean of the corresponding control batch.

SMILES | pA2 NK1 (NK1 receptor) | analgesic properties / analgesic power (in words) (mouse; Eddy test in the mouse, i.v.) | Eddy test in the mouse ED50 (mouse)
CN(Cc1ccccc1)C(=O)[C@H](Cc1ccccc1)NC(=O)[C@@H](Cc1cn(C=O)c2ccccc12)NC(=O)C[C@@H]1NC(=O)[C@@H]2C3CCC(CC3)N2C1=O [Example 1, Cyclo(Abo--Asp)--trp(CHO)--Phe--N(CH3)CH2 C6 H5] | 6.46 | superior to that of morphine | 0.2 mg/kg i.v.
CN(Cc1ccccc1)C(=O)[C@H](Cc1ccccc1)NC(=O)[C@@H](Cc1cn(C=O)c2ccccc12)NC(=O)C[C@H]1NC(=O)[C@H]2C3CCC(CC3)N2C1=O [Example 5, Cyclo(abo--asp)--trp(CHO)--Phe--N(CH3)CH2 C6 H5] | 7.16 | – | 3.5 mg/kg i.v.
CN(Cc1ccccc1)C(=O)[C@H](Cc1ccccc1)NC(=O)[C@@H](Cc1c[nH]c2ccccc12)NC(=O)C[C@@H]1NC(=O)[C@@H]2C3CCC(CC3)N2C1=O [Example 9, Cyclo(Abo--Asp)--trp--Phe--N(CH3)CH2 C6 H5] | 7.00 | – | –
